Data from PubChem BioAssay AID493014 (National Center for Advancing Translational Sciences (NCATS), 2011).
The other results are listed elsewhere or left out. These are further read-outs of the screen, such as a control signal, another cell line or another target. No call is given for them. Most of these compounds were active or inconclusive in the main read-out, so they are no random draw. The note in brackets gives the kind of curve behind each potency; many fits are weak.

Assay: qHTS Assay to Find Inhibitors of Chronic Active B-Cell Receptor Signaling
Conditions: ABC-DLBCL IkBa-CBG/CBR reporter, luminescence ratio (green luciferase fused to IkBa over red control in TMD8 lymphoma cells), 4 h
In short: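 Compounds up to 46 uM were incubated four hours with TMD8 cells whose green CBG68 luciferase is fused to IkappaBalpha; red CBR luminescence normalised the signal, and concentration-effect curves were fitted to fusion, red and ratio data.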

[1] = measured here: CBR red luminescence, cell number
[2] = measured here: IkBa-CBG green luminescence

Compound | AC50 [1] | AC50 [2]
CCC1Sc2ccccc2N(CC(=O)NC2CCCC2)C1=O (centres undefined) | 0.103 µM [falling, full curve, poor fit] | –
Nc1nc(SCc2ccc(Cl)c(Cl)c2)n[nH]1 | 16.4 µM [rising, partial curve, poor fit] | –
O=C(COC(=O)C(c1ccccc1)c1ccccc1)NCc1ccco1 | 35.5 µM [falling, single point] | –
COc1cc(OC)cc(C(=O)NCCCN2CCOCC2)c1 | 29.1 µM [rising, partial curve, poor fit] | –
C/C=C/c1ccc(OCC(=O)Nc2cc(Cl)ccc2-n2cncn2)c(OC)c1 | 1.46 µM [rising, full curve, poor fit] | –
CN(C)c1cc(-c2ccc(Br)cc2)oc(=O)c1Cl | 1.78 µM [rising, full curve, poor fit] | –
O=C(COC(=O)C1CCCO1)Nc1cccc(C(F)(F)F)c1 (centres undefined) | 6.51 µM [falling, single point] | –
CCOC(=O)Nc1sc(C)c(C)c1C(=O)OCC | 29.1 µM [rising, single point] | –
O=C(CN(C(=O)CCC(=O)Nc1nccs1)c1ccccc1F)NCc1ccccc1 | 0.501 µM [falling, full curve, poor fit] | –
CCOc1ccc(CC(=O)OCc2cc(=O)n3cc(Br)ccc3n2)cc1 | 1 µM [rising, partial curve, poor fit] | –
COc1ccc(Br)cc1C(=O)Nc1ccc(C(=O)O)cc1 | 5.01 µM [falling, partial curve] | –
COc1ccccc1/C=C/C(=O)NNC(=O)c1cccs1 | 1 µM [falling, full curve] | –
O=C(NC(=S)Nc1ccc2cn[nH]c2c1)c1ccccc1 | 11.2 µM [falling, partial curve] | –
Cc1ccc(SC(CC(=O)c2ccc(C(C)(C)C)cc2)C(=O)O)cc1 (centres undefined) | 10 µM [falling, partial curve, poor fit] | 31.6 µM [rising, single point]
Cc1[nH]nc2c1C(c1ccco1)C(C#N)=C(N)O2 (centres undefined) | 7.94 µM [falling, partial curve, poor fit] | –
CC(=O)Oc1ccc2ccccc2c1C(NC(=O)Cc1ccccc1)c1ccccc1Cl (centres undefined) | 0.112 µM [falling, full curve, poor fit] | –
NC(=O)c1ccc(N=Cc2ccc([N+](=O)[O-])s2)cc1 | 16.4 µM [falling, partial curve] | –
CC(C)OC(=O)Cn1c(=O)oc2ccccc21 | 2.06 µM [rising, partial curve, poor fit] | –
CSc1nc2c(ccc3ccccc32)o1 | 20.6 µM [rising, single point] | –
COC(=O)[C@H]1[C@H]2C[C@@H]3c4[nH]c5cc(OC)ccc5c4CCN3C[C@H]2C[C@@H](OC(=O)c2cc(OC)c(OC)c(OC)c2)[C@@H]1OC | 29.1 µM [falling, single point] | –
Cc1cc(C2C(C#N)=C(N)OC3=C2C(=O)CCC3)c(C)s1 (centres undefined) | 0.164 µM [falling, full curve, poor fit] | –

Compound | AC50 [1] | AC50 [2]
O=C(CC1SC(=O)NC1=O)Nc1ccc(Cl)cc1 (centres undefined) | 14.1 µM [falling, partial curve, poor fit] | –
O=C(COc1ccccc1C(=O)Nc1ccccc1)NCCc1ccccc1 | 35.5 µM [rising, single point] | –
O=C(N/N=C/c1oc(O)c2ccccc12)c1ccccc1 | 7.08 µM [falling, full curve] | –
COc1cc(SC)ccc1C(=O)Nc1ccccn1 | 7.94 µM [falling, partial curve] | –
Cc1ccc(NC(=O)n2ncc3c(C)cccc32)c(C)c1 | 0.251 µM [rising, full curve, poor fit] | –
Cc1cc(C)nc(-n2ncc3c2CC(c2ccccc2C)CC3=O)n1 (centres undefined) | 3.26 µM [rising, single point] | –
Cc1nn(Cc2ccc(C(=O)NC3CCCCC3)o2)c(C)c1Br | 29.1 µM [falling, single point] | –
Cc1cc(/C=N/NC(=O)C(O)(c2ccccc2)c2ccccc2)c(C)n1-c1ccc(C(=O)O)cc1 | 20.6 µM [falling, partial curve, poor fit] | –
COc1cc(C2Nc3ccc4ncccc4c3C3=C2C(=O)CCC3)ccc1O (centres undefined) | 35.5 µM [rising, single point] | 22.4 µM [falling, single point]
COC(=O)C(CC(=O)c1ccc(Br)cc1)n1nc(C)cc1C (centres undefined) | 22.4 µM [falling, single point] | –
Cc1ccc(NC(=O)N2CCCC2c2cccs2)cc1 (centres undefined) | 35.5 µM [rising, single point] | –
CC(=O)Nc1ccc(NC(=O)C(C)OC(=O)c2cccs2)cc1 (centres undefined) | 23.1 µM [rising, single point] | –
CSc1ncccc1C(=O)OCC(=O)Nc1cc(C(F)(F)F)ccc1N1CCOCC1 | 1 µM [rising, full curve, poor fit] | –
O=C(CCCc1ccccc1)NCCc1ccccc1 | 1 µM [rising, partial curve, poor fit] | –
NC(=O)CC(NC(=O)Cc1ccc(Br)cc1)c1ccc(NCCOc2ccccc2)c([N+](=O)[O-])c1 (centres undefined) | 5.62 µM [rising, full curve] | –
O=C(NCCCN1CCCC1=O)Nc1ccc([N+](=O)[O-])cc1 | 7.94 µM [rising, partial curve, poor fit] | –
Cc1cc2ncn(/N=C/c3cc(Br)ccc3O)c2cc1C | 5.62 µM [falling, single point] | –
COC(=O)Cc1c[nH]c2cccc(OCC(O)CN(Cc3ccc([N+](=O)[O-])cc3)C(C)(C)C)c12 (centres undefined) | 2.24 µM [falling, partial curve, poor fit] | –
NC(=S)N/N=C/c1coc2ccc(Br)cc2c1=O | 20 µM [rising, partial curve, poor fit] | 2.51 µM [rising, full curve, poor fit]
N#C/C(=C(/O)c1ccc(-c2cccc([N+](=O)[O-])c2)o1)c1nc2ccccc2s1 | 2.24 µM [falling, partial curve, poor fit] | –

Looked up above:
AC50 [1] with COC(=O)C(CC(=O)c1ccc(Br)cc1)n1nc(C)cc1C (centres undefined) reads 22.4 µM [falling, single point]
AC50 [1] with Cc1cc(C)nc(-n2ncc3c2CC(c2ccccc2C)CC3=O)n1 (centres undefined) reads 3.26 µM [rising, single point]
AC50 [1] with NC(=S)N/N=C/c1coc2ccc(Br)cc2c1=O reads 20 µM [rising, partial curve, poor fit]
